Test results: PubChem BioAssay (NCATS)
Inconclusive means that the source gave no clear call. Such entries were picked first, then a sample of the others. Where the call is inconclusive, the potency comes from a doubtful curve fit. The source made the active and inactive calls. The call rests on the fitted dose curve; in most records, active means well fitted cell-killing curve with a large enough effect; inconclusive means small, poorly fitted or top-dose-only effect, or effect the other way; inactive means no such curve, though single readings can be large or run the other way.

assay: Quantitative High-Throughput drug screen in 47 multiple myeloma cell lines against the NCATS MIPE library collection: OCIMY7_PLB cell viability assay (AID 1918987); conditions: OCI-MY7 myeloma viability, CellTiter-Glo ATP, 48 h; series mostly up to 45.8 µM; further: nearly all actives have a fitted effect of over 65% in size
Excerpt: PI: Beverly A. Mock Ph.D.
Laboratory of Cancer Biology and Genetics,
Center for Cancer Research, National Cancer Institute,
National Institute of Health, Bethesda, Maryland
Drug resistance and disease progression are common in multiple myeloma (MM) patients, underscoring the need for new therapeutic combinations. […] We hypothesized that effective combinations would reduce MYC expression and enhance p16 activity. […] These preclinical data identify potentially useful drug combinations for evaluation in drug-resistant MM and reveal potential mechanisms of combined drug sensitivity.
Described herein is the primary MIPE qHTS used to cherrypick compounds. Validated compounds were then further tested for potential synergistic activiy.
[1] Peat TJ, Gaikwad SM, Dubois W, Gyabaah-Kessie N, Zhang S, Gorjifard S, Phyo Z, Andres M, Hughitt VK, Simpson RM, Miller MA, Girvin AT, Taylor A, Williams D, D'Antonio N, Zhang Y, Rajagopalan A, Flietner E, Wilson K, Zhang X, Shinn P, Klumpp-Thomas C, McKnight C, Itkin Z, Chen L, Kazandijian D, Zhang J, Michalowski AM, Simmons JK, Keats J, Thomas CJ, Mock BA. Drug combinations identified by high-throughput screening promote cell cycle transition and upregulate Smad pathways in myeloma. Cancer Lett. 2023 Aug 1;568:216284. doi: 10.1016/j.canlet.2023.216284. Epub 2023 Jun 24. PMID: 37356470; PMCID: PMC10408729.
SEQUENCE No. (e.g., 1, 2, 3, etc.); […] (e.g., Cells, Incubation, Reagent, etc.); VALUE and DESCRIPTION.
1; Cells; 5 uL; white, solid bottom 1536-well Greiner assay plate.
2; Compounds; 23 nL; Kalypsis pin tool (Wako USA) equipped with a 1536-well pin head to transfer to the assay plates.
3; Incubation; 48 hours; 37C incubation.
4; Reagent;5uL; CellTiter Glo (Promega).
5; Detector; 425V; Luminescence; Viewlux PerkinElmer.
NOTES (numbers refer to Sequence numbers above)
1. The cell-based screening methods employed in this study were like those previously published. Briefly, the corresponding myeloma cell lines were screened in 1,536-well plates with 500 cells, 5-uL per well for inhibition of cell viability (assessed by measuring ATP levels with CellTiterGlo).
2. NCATS MIPE 4.0 library of approved and investigational drugs were added using the Kalypsis pin tool. Wells treated with DMSO only for 100% viability and media only for 0% viability were used as controls.
3. The assay plates were covered and incubated for 48 hours in a 37C, 5% CO2 incubator with controlled humidity.
4. After 48 hours, CellTilter-GloTM luminescent substrate mix (Promega) reagent was added to the assay plate and plates we incubated for 5 min at room temperature.
5. Signal was measured as median relative luminescence units on a ViewLux (PerkinElmer) multiplate reader.
[1] Heske CM, Davis MI, Baumgart JT, Wilson K, Gormally MV, Chen L, Zhang X, Ceribelli M, Duveau DY, Guha R, Ferrer M, Arnaldez FI, Ji J, Tran HL, Zhang Y, Mendoza A, Helman LJ, Thomas CJ. Matrix Screen Identifies Synergistic Combination of PARP Inhibitors and Nicotinamide Phosphoribosyltransferase (NAMPT) Inhibitors in Ewing Sarcoma. Clin Cancer Res. 2017 Dec 1;23(23):7301-7311. doi: 10.1158/1078-0432.CCR-17-1121. Epub 2017 Sep 12. PMID: 28899971; PMCID: PMC6636827.
Potency means the concentration at half of the fitted maximal effect.

Q: For `COc1ccnc(CS(=O)c2nc3ccc(OC(F)F)cc3[nH]2)c1OC` (stereo not given), which Potency is on record?
A: Its Potency is inconclusive: 37.2 µM [cytotoxic, partial curve, poor fit].

Q: With `O=C(CCN1CCN(C(=O)OCc2cc(Cl)cc(Cl)c2)CC1)c1ccc2[nH]c(=O)oc2c1` as the compound, how does the Potency read?
A: Its Potency is inconclusive: 16.6 µM [cytotoxic, partial curve, poor fit].

Q: With `O=C(O)c1cccc(-c2noc(-c3ccccc3F)n2)c1` as the compound, how does the Potency read?
A: The Potency was inconclusive: 18.7 µM [rising, partial curve, poor fit].

Q: For `O=C1NC(=O)C(=Cc2ccc(-c3ccc(F)cc3O)o2)S1`, which Potency is on record?
A: Its Potency is active: 3.72 µM.

Q: Which Potency does the source give for `CN1CCC(=C2c3ccccc3CCc3sccc32)CC1` here?
A: The Potency was inconclusive: 37.2 µM [cytotoxic, single point].

Q: For `COc1ccc2c3c1OC1C[C@@H](O)C=C[C@@]31CCN(C)C2` (stereo not given in full), which Potency is on record?
A: Its Potency is active: 4.18 µM.

Q: For `O=[N+]([O-])c1ccc(Nc2ccccc2-c2ccccc2)c2nonc12`, which Potency is on record?
A: The Potency was active: 18.7 µM.

Q: With `Cc1ccc(NC(=O)c2ccc(CN3CCN(C)CC3)cc2)cc1Nc1nccc(-c2cccnc2)n1` as the compound, how does the Potency read?
A: The Potency was inconclusive: 29.6 µM [cytotoxic, single point].

Q: Which Potency does the source give for `CC(=O)O[C@]1(C(C)=O)CC[C@H]2[C@@H]3C=C(C)C4=CC(=O)CC[C@]4(C)[C@@H]3CC[C@@]21C` here?
A: Its Potency is inconclusive: 8.33 µM [cytotoxic, full curve, poor fit].

Q: Which Potency does the source give for `CNCc1ccc(-c2[nH]c3cc(F)cc4c3c2CCNC4=O)cc1` here?
A: Its Potency is inconclusive: 37.2 µM [cytotoxic, single point].

Q: Which Potency does the source give for `NC(CO)C(=O)NNCc1ccc(O)c(O)c1O` (stereo not given) here?
A: The Potency was inconclusive: 9.35 µM [cytotoxic, partial curve, poor fit].

Q: With `CCn1cc(C(=O)O)c(=O)c2cc(F)c(N3CCNC(C)C3)c(F)c21` (stereo not given) as the compound, how does the Potency read?
A: Its Potency is inconclusive: 29.6 µM [rising, partial curve, poor fit].

Q: Which Potency does the source give for `CCCn1c(=O)c2[nH]c(C34CC5CC3C[C@@H](C5)C4)nc2n(CCC)c1=O` here?
A: The Potency was inconclusive: 5.26 µM [cytotoxic, partial curve, poor fit].

Q: For `O=C(C=CC=Cc1ccc2c(c1)OCO2)N1CCCCC1`, which Potency is on record?
A: The Potency was “inactive”.

Q: With `Cc1c(OCC(F)(F)F)ccnc1CS(=O)c1nc2ccccc2[nH]1` (stereo not given) as the compound, how does the Potency read?
A: The Potency was inconclusive: 1.32 µM [rising, partial curve, poor fit].

Q: For `CC(C)CNc1ccnc(NCc2csc(-c3ccccc3)n2)n1`, which Potency is on record?
A: The Potency was active: 16.6 µM.

Q: With `C[C@H](NC(=O)[C@@H](O)c1cc(F)cc(F)c1)C(=O)N[C@@H]1C(=O)N(C)c2ccccc2-c2ccccc21` as the compound, how does the Potency read?
A: Its Potency is inconclusive: 37.2 µM [cytotoxic, single point].

Q: For `COc1ccc(CC2=NN3C([C@@H](CCc4ccccc4)[C@@H](C)O)=NC(C)C3C(=O)N2)cc1OC` (stereo not given in full), which Potency is on record?
A: Its Potency is “inactive”.

Q: With `Cc1ccccc1C(C(=O)NC1CCCC1)N(C(=O)Cn1cnc2ccccc21)c1cccc(F)c1` (stereo not given) as the compound, how does the Potency read?
A: Its Potency is inconclusive: 23.5 µM [cytotoxic, partial curve, poor fit].

Q: With `CN1C(=O)C(Cc2c[nH]c3ccccc23)NC1=S` (stereo not given) as the compound, how does the Potency read?
A: Its Potency is inconclusive: 9.35 µM [cytotoxic, full curve, poor fit].

Q: Which Potency does the source give for `CC(C(=O)O)c1ccc(-c2ccccc2)c(F)c1` (stereo not given) here?
A: Its Potency is active: 14.8 µM.

Q: For `O=C(Nc1cc2cc[nH]c2cn1)c1ccccc1`, which Potency is on record?
A: Its Potency is inconclusive: 10.5 µM [cytotoxic, partial curve, poor fit].

Q: For `CC1Cc2ccccc2N1NC(=O)c1ccc(Cl)c(S(N)(=O)=O)c1` (stereo not given), which Potency is on record?
A: The Potency was inconclusive: 5.9 µM [cytotoxic, full curve, poor fit].

Q: With `CN(C1CCc2c(c3ccccc3n2CC(=O)O)C1)S(=O)(=O)c1ccc(F)cc1` (stereo not given) as the compound, how does the Potency read?
A: The Potency was inconclusive: 1.05 µM [cytotoxic, full curve, poor fit].

Q: For `CC(C)NCC(O)COc1ccc(CCOCC2CC2)cc1` (stereo not given), which Potency is on record?
A: The Potency was inconclusive: 4.69 µM [cytotoxic, full curve, poor fit].

Q: With `COc1ccc(C2Sc3ccccc3N(CCN(C)C)C(=O)C2OC(C)=O)cc1` (stereo not given) as the compound, how does the Potency read?
A: Its Potency is inconclusive: 37.2 µM [cytotoxic, single point].

Q: For `COc1cc(OC)c(C(=O)CCCN2CCCC2)c(OC)c1`, which Potency is on record?
A: The Potency was inconclusive: 0.001 µM.

Q: Which Potency does the source give for `COc1cc2nc(N3CCN(C(=O)C4CCCO4)CC3)nc(N)c2cc1OC` (stereo not given) here?
A: Its Potency is inconclusive: 0.0015 µM [rising, full curve, poor fit].

Q: With `O=c1cc(-c2ccccc2)oc2cc(O)c(O)c(O)c12` as the compound, how does the Potency read?
A: The Potency was inconclusive: 18.7 µM [cytotoxic, partial curve, poor fit].

Q: For `OC[C@H]1O[C@@H](n2cnc3c2NC=NC[C@@H]3O)C[C@H]1O`, which Potency is on record?
A: The Potency was active: 23.5 µM.

Q: Which Potency does the source give for `C[C@H](NC(=O)c1sccc1OCc1ccc(Cl)cc1)c1ccccc1` here?
A: Its Potency is inconclusive: 20.9 µM [cytotoxic, partial curve, poor fit].

Q: For `O=NN(CCCl)C(=O)NCCCl`, which Potency is on record?
A: Its Potency is inconclusive: 37.2 µM [cytotoxic, single point].

Q: Which Potency does the source give for `CC(=NNC(=S)N1CCC1)c1ccccn1` here?
A: The Potency was “inactive”.

Q: Which Potency does the source give for `COC(=O)C1=C(C)NC(C)=C(C(=O)OCCN2CCN(C(c3ccccc3)c3ccccc3)CC2)C1c1cccc([N+](=O)[O-])c1` (stereo not given) here?
A: The Potency was “inactive”.

Q: With `Cc1ccc(C(=O)Nc2ccc(S(=O)(=O)O)c3cc(S(=O)(=O)O)cc(S(=O)(=O)O)c23)cc1NC(=O)c1cccc(NC(=O)Nc2cccc(C(=O)Nc3cc(C(=O)Nc4ccc(S(=O)(=O)O)c5cc(S(=O)(=O)O)cc(S(=O)(=O)O)c45)ccc3C)c2)c1` as the compound, how does the Potency read?
A: The Potency was inconclusive: 1.32 µM [cytotoxic, full curve, poor fit].

Q: Which Potency does the source give for `O=S(=O)(O)CCSSCCS(=O)(=O)O` here?
A: The Potency was inconclusive: 0.0059 µM [rising, full curve, poor fit].

Q: For `O=C1Cc2cc(CCN3CCN(c4nsc5ccccc45)CC3)c(Cl)cc2N1`, which Potency is on record?
A: The Potency was inconclusive: 4.18 µM [cytotoxic, full curve, poor fit].

Q: Which Potency does the source give for `O=C1CCCC2=C1C(c1[nH]ncc1Cl)N=C(Nc1nc3ccccc3o1)N2` (stereo not given) here?
A: The Potency was active: 8.33 µM.

Q: With `Cc1[nH]c(C=C2C(=O)Nc3ccccc32)c(C)c1CCC(=O)O` as the compound, how does the Potency read?
A: Its Potency is inconclusive: 37.2 µM [cytotoxic, single point].

Q: For `COc1ccc([C@@H]2CC(=O)c3c(O)cc(O[C@@H]4O[C@H](CO[C@@H]5O[C@@H](C)[C@H](O)[C@@H](O)[C@@H]5O)[C@@H](O)[C@H](O)[C@@H]4O)cc3O2)cc1O`, which Potency is on record?
A: Its Potency is inconclusive: 0.001 µM.
